Measured values taken from patent US20250268816A1, “EXTENDED-RELEASE FORMULATION CONTAINING CRESOL” (UNIVERSITY OF MARYLAND, BALTIMORE, priority 2022, published 2025).
At least one structure is not confirmed: it was looked up by name or label, or the drawing left a doubt. Some entries repeat one wording, which the source may state once for all of them.

Test: Drug release study from the in situ gelling system (ISFGSs)
Format: physicochemical
Method: FIG. 29 is a graph showing the results of a dexamethasone release study using 6 wt % Dex and 24 wt % Polymer 80 μL.
FIGS. 30A and 30B are graphs showing the effect of polymer composition on the cumulative release of remdesivir from ISFGSs; 3 wt % 80 and 160 uL-24 wt %.
FIGS. 31A and 31B are graphs showing the effect of polymer composition on the cumulative release of GS-441524 from 80 μL of ISFGSs.
FIGS. 32A and 32B are graphs showing the effect of polymer composition on the cumulative release of GS-441524 from 160 μL of ISFGSs.
FIG. 33A and FIG. 33B are a set of graphs showing the effect of polymer composition and solution volume on the cumulative release of artemisinin from ISFGSs.
FIGS. 37A and 37B are graphs showing the cumulative release of gilteritinib from ISFGSs: Gilteritinib 4 wt % Release 80 μL PLGA 50/50 depots.

Row | SMILES | release from the in situ gelling system (in words)
1 | CCc1nc(C(N)=O)c(Nc2ccc(N3CCC(N4CCN(C)CC4)CC3)c(OC)c2)nc1NC1CCOCC1 [gilteritinib] | sustained release
2 | C[C@@H]1C[C@H]2[C@@H]3CCC4=CC(=O)C=C[C@]4(C)[C@@]3(F)[C@@H](O)C[C@]2(C)[C@@]1(O)C(=O)CO [dexamethasone] | sustained release
